# According to PubChem BioAssay AID504467 (National Center for Advancing Translational Sciences (NCATS), 2011):
# Among all 330,000 compounds or so, about 7,700 (2.3%) were called active. This list was built around the results that the source calls inconclusive (neither active nor inactive); the mix of calls is not that of the screen. The call rests on the fitted dose curve; in most records, active means well fitted inhibition curve with a large enough effect; inconclusive means small, poorly fitted or top-dose-only effect, or effect the other way; inactive means flat fitted curve, though single readings scatter. Potencies beside an inconclusive call are fits to weak or partial responses and may not hold up.
# Experiment: qHTS screen for small molecules that inhibit ELG1-dependent DNA repair in human embryonic kidney (HEK293T) cells expressing luciferase-tagged ELG1; further: nearly all actives have a fitted effect of over 55% in size
# Conditions: HEK293T ELG1-luciferase reporter, luminescence, 16 h, DNA damage induced by 5-fluorouridine; activity change, negative = inhibition: at 46.1 µM (top of the series)
# Outline: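 Quantitative HTS, concentration-response format. 2,000 cells/well co-treated with 5-fluorouridine and compound, 16 hr in 5% CO2 at 37 °C; ONE-Glo luminescence read after 30 min.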
# On the % scale 0 is the no-effect control and ±100 the full control effect; potency means the concentration at half of the fitted maximal effect.
SMILES,"activity change, negative = inhibition",Potency
CO/N=C/c1c(-c2ccc(Cl)cc2)nc2cc(C)ccn12,inactive: 2.5%,–
Cc1cccc(C(=O)NCC(=O)NC(C)CCc2ccccc2)c1 (stereo unspecified),inactive: -13.6%,–
COc1ccc(C(=O)O/N=C(\N)c2ccccn2)c(OC)c1,–,"inconclusive: 2.06 µM [activator, full curve]"
COc1ccc(NS(=O)(=O)c2ccc(N3CCOCC3)c(NC(=O)c3ccco3)c2)cc1,–,"inconclusive: 16.4 µM [inhibitor, single point]"
Cc1nnc2ccc(-c3ccc(NC(=O)c4cccnc4Cl)cc3)nn12,–,"inconclusive: 23.1 µM [activator, partial curve]"
Cc1cc(S(=O)(=O)NCc2ccc(N3CCN(C)CC3)cc2)c(C)s1,–,"inconclusive: 29.1 µM [inhibitor, single point]"
COc1ccc(-n2c(-c3ccc(Cl)cc3)c[n+]3c2CCCCC3)cc1,–,active: 5.8 µM
COc1ccc(-c2coc3cc(O[C@@H]4O[C@H](CO)[C@@H](O)[C@H](O)[C@H]4O)ccc3c2=O)cc1,–,"inconclusive: 6.51 µM [activator, partial curve]"
Cc1ccc(C(=O)NC(=S)N2CCN(C(=O)OC(C)(C)C)CC2)cc1Br,–,"inconclusive: 16.4 µM [inhibitor, single point]"
O=C(COC(=O)C1CC2C=CC1C2)NCc1ccco1 (stereo unspecified),inactive: -3.14%,–
CN(CC(=O)Nc1cccc(F)c1)C(=O)CNC(=O)Cc1cccc2ccccc12,inactive: 18.6%,–
CN(C)S(=O)(=O)c1ccc(Cl)c(NC(=O)CSc2nc3c(cc2C#N)C(=O)CCC3)c1,inactive: -15.6%,–
CC(=O)NC(=S)Nc1sc2c(c1C(N)=O)CCC(C)C2 (stereo unspecified),–,"inconclusive: 16.4 µM [activator, partial curve]"
COC(=O)CN(C)C(=O)c1ccccc1OC1CCN(S(C)(=O)=O)CC1,inactive: 12.4%,–
CCSc1nnc(-c2ccc(Cl)cc2)c2ccccc12,inactive: 3.12%,–
CC[C@@]12C(=O)N(c3cccc(Cl)c3)C(=O)N1[C@H](c1ccc(Br)cc1)[C@@H]1C(=O)N(C(C)(C)C)C(=O)[C@@H]12,inactive: -1.09%,–
C#Cc1ccc([C@@H]2C=C(C(=O)NC3CC3)O[C@H](OCC)[C@H]2CCCO)cc1,inactive: 0.227%,–
CCOc1cccc(-c2c(C(=O)N/N=C/c3cccnc3)nnn2-c2nonc2N)c1,–,"inconclusive: 29.1 µM [inhibitor, single point]"
CCOC(=O)C(CC)n1cnc2c(cnn2-c2ccc(Cl)cc2)c1=O (stereo unspecified),–,"inconclusive: 29.1 µM [inhibitor, single point]"
COc1cc(C2OCC3C(c4cc(OC)c(OC)c(OC)c4)OCC23)cc(OC)c1OC (stereo unspecified),–,"inconclusive: 29.1 µM [inhibitor, single point]"
C=CC[C@H](CC(=O)NCCO)C(=O)N[C@H](C)COC(=O)[C@@H](CC=C)Cc1ccc(F)cc1,–,"inconclusive: 16.4 µM [inhibitor, partial curve, poor fit]"
C[N+](C)(C)CC(=O)N1CCN(c2ccc3ccccc3n2)CC1,inactive: 0.372%,–
Cc1cccc(Cl)c1NC(=O)N1CCN(c2ccnc3cc(Cl)ccc23)CC1,–,active: 18.3 µM

SMILES,"activity change, negative = inhibition",Potency
CCc1ccc2oc(=O)cc(CN3CCN(c4ccc(F)cc4)CC3)c2c1,–,"inconclusive: 16.4 µM [inhibitor, single point]"
Cc1ccc(OCC(=O)NCCCNC(=O)c2cccnc2)cc1C,–,"inconclusive: 32.6 µM [inhibitor, single point]"
COc1cc(/C=C(\C#N)c2nc3ccccc3[nH]2)ccc1Oc1ccc([N+](=O)[O-])cn1,inactive: 0.145%,–
CS(=O)(=O)c1ccc(S(=O)CC(=O)Oc2ccc(Cl)cc2)c([N+](=O)[O-])c1 (stereo unspecified),–,"inconclusive: 18.3 µM [activator, partial curve]"
C[C@@H]1NC(=O)c2cc([N+](=O)[O-])cc(I)c2OCC[C@@H](C(N)=O)NC(=O)[C@H](CCC(=O)O)NC1=O,inactive: -6.14%,–
CC1CCN(S(=O)(=O)c2ccc(NC(=O)c3cccs3)cc2)CC1,inactive: -9.12%,–
CNC(=O)COC(=O)c1cc(-c2ccco2)nc2ccccc12,inactive: 5.2%,–
CN(CC(O)CN)CC(O)CN1CCCCC1 (stereo unspecified),–,"inconclusive: 23.1 µM [activator, single point]"
COc1ccc(S(=O)(=O)N2CCC(C(=O)N(C)Cc3ccc(C)o3)CC2)cc1OC,–,active: 16.4 µM
c1ccc2c(c1)NC1(CCCCC1)n1c-2nc2ccccc21,–,"inconclusive: 11.6 µM [activator, partial curve]"
Cc1ccc(SCCC(=O)OCC(=O)Nc2ccc(S(N)(=O)=O)cc2)cc1,–,"inconclusive: 14.6 µM [inhibitor, partial curve, poor fit]"
Clc1cccc(CSc2ccc(-c3cccnc3)nn2)c1,inactive: 5.53%,–
CC(C)S(=O)(=O)C/C(N)=N/OC(=O)c1cc(Cl)cc(Cl)c1,inactive: -3.74%,–
O=C(CN1CCN(c2ccccc2F)CC1)NC(=O)NC1CCCCC1,inactive: -0.752%,–
CCn1c(-c2cc(-c3cc(C)ccc3C)nc3ccccc23)n[nH]c1=S,–,"inconclusive: 20.6 µM [inhibitor, single point]"
Cc1cc(C(=O)O)ccc1-c1ccc(CO)o1,–,"inconclusive: 20.6 µM [activator, single point]"
COc1ccccc1-c1nnc(NC(=O)c2ccc(S(=O)(=O)N(C)C)cc2)o1,–,"inconclusive: 23.1 µM [inhibitor, partial curve, poor fit]"
Cc1ccnc(NC(=S)NC(=O)c2cncc(Br)c2)c1,–,"inconclusive: 14.6 µM [activator, partial curve]"
CCOc1ccc(C2=CS/C(=C(\C#N)c3nnc4n3CCCCC4)N2CC)cc1,–,"inconclusive: 20.6 µM [inhibitor, single point]"
Nc1ccc2nc(CCCO)[nH]c2c1,inactive: -5.54%,–
Cc1ccc(C)c(-c2nnc(NC(=O)Cc3ccc(F)cc3)o2)c1,inactive: -3.68%,–
Cc1ccn2c(NCc3ccccc3)c(-c3cccc(SC4CCCCC4)c3)nc2c1,–,"inconclusive: 29.1 µM [inhibitor, single point]"
CCOC(=O)c1cnn(-c2nc3c(C)cccc3s2)c1C,–,"inconclusive: 20.6 µM [activator, single point]"

# Another view of some results above.
SMILES	activity change, negative = inhibition	Potency
Cc1ccnc(NC(=S)NC(=O)c2cncc(Br)c2)c1	–	inconclusive: 14.6 µM [activator, partial curve]
CCOc1ccc(C2=CS/C(=C(\C#N)c3nnc4n3CCCCC4)N2CC)cc1	–	inconclusive: 20.6 µM [inhibitor, single point]
